Laboratory results from the supplement of paper PMC12819154, “High-throughput peptide-centric local stability assay extends protein–ligand identification to membrane proteins, tissues and bacteria” (Nature Structural & Molecular Biology, 2025).
The list shows a part of the results. Most values lie at the level of the controls, where differences are scatter.

By UniProt entry, the sequences of proteins in these tests, tags left out. Where a name states a change or a piece, a line headed by the entry shows the natural chain unless it says otherwise.
UniProt Q8QZX5: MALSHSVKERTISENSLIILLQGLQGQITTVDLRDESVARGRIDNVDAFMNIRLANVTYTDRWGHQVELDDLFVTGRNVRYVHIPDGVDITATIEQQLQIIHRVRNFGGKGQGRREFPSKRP
UniProt Q8K3F6: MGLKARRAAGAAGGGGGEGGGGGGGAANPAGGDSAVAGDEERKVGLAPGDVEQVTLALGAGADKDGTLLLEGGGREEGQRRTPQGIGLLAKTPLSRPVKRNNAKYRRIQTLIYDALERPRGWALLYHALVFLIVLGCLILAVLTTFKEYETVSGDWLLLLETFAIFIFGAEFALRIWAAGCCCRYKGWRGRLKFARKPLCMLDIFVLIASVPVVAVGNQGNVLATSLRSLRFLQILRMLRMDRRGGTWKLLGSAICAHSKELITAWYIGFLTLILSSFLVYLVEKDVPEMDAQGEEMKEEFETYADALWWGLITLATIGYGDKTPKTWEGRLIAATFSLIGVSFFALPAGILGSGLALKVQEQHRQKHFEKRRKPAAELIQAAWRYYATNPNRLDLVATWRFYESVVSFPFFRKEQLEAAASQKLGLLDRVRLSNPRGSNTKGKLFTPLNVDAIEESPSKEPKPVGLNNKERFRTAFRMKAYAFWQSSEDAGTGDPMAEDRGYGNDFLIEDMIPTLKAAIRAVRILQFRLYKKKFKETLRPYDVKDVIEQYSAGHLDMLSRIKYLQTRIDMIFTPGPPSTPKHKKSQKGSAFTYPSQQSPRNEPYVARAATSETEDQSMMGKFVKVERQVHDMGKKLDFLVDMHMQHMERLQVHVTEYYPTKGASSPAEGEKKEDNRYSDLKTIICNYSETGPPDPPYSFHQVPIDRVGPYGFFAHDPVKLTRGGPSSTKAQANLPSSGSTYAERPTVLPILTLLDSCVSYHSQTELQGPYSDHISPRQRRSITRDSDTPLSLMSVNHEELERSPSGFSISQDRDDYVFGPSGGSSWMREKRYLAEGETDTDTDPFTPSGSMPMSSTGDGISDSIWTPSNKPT
UniProt Q8R164: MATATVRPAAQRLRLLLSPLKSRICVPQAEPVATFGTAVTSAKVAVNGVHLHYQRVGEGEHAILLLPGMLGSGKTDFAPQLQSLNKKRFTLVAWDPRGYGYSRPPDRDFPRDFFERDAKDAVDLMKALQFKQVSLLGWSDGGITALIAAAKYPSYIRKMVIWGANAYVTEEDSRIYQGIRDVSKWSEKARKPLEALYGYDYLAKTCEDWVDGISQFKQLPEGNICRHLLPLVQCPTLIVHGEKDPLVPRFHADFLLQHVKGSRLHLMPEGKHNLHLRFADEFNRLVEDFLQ
UniProt Q8K2C8: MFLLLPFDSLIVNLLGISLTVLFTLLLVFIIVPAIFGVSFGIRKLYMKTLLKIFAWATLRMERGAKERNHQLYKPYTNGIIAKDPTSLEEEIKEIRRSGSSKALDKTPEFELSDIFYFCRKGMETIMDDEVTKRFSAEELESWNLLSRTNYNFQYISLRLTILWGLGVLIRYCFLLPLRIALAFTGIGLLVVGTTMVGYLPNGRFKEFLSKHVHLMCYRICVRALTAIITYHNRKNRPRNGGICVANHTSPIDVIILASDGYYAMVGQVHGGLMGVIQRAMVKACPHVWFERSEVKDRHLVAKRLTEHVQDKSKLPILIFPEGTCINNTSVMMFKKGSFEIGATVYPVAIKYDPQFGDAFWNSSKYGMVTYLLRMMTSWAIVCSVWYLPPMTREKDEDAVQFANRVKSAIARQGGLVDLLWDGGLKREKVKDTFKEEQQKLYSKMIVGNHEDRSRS
UniProt Q8K301: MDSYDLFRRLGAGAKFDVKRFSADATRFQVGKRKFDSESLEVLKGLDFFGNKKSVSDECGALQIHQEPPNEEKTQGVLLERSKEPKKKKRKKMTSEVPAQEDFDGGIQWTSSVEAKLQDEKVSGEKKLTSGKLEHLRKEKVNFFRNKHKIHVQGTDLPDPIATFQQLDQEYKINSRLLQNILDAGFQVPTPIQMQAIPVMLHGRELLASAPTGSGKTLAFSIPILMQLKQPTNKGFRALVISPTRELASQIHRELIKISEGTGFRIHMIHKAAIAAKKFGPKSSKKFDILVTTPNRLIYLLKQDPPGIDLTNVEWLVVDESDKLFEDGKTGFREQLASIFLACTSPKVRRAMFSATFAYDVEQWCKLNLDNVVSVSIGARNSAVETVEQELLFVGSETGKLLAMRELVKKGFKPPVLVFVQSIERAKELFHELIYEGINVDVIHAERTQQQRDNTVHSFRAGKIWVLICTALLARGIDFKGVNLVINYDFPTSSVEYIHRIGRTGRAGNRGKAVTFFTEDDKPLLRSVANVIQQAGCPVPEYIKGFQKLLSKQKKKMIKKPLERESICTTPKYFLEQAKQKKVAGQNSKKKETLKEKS
UniProt Q8K558: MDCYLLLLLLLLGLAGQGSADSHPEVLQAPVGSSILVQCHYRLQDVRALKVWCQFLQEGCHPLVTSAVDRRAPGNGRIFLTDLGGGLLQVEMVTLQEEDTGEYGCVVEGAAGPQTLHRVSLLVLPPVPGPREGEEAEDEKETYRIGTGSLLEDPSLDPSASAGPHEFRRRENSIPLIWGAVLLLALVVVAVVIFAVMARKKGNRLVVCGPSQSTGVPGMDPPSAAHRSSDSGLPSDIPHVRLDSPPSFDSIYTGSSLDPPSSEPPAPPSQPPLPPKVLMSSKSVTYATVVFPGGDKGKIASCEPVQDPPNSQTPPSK
UniProt Q8K3M5: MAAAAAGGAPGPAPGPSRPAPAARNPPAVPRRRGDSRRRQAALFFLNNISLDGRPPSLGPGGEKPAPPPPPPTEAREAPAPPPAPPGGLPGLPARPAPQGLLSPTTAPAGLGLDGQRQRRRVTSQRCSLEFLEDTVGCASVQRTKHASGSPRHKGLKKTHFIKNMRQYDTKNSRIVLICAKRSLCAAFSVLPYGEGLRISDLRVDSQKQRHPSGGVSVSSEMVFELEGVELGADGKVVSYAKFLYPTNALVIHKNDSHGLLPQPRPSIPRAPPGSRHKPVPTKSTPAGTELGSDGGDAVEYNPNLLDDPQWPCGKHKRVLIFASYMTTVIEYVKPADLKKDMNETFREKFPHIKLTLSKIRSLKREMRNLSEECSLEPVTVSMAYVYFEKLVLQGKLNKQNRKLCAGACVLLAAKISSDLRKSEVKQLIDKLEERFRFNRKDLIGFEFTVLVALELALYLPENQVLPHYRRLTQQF
UniProt Q8K273: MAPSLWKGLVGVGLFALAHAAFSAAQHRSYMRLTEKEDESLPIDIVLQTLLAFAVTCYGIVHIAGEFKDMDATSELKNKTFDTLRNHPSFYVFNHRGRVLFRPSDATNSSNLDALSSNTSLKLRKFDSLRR
UniProt Q8QZS3: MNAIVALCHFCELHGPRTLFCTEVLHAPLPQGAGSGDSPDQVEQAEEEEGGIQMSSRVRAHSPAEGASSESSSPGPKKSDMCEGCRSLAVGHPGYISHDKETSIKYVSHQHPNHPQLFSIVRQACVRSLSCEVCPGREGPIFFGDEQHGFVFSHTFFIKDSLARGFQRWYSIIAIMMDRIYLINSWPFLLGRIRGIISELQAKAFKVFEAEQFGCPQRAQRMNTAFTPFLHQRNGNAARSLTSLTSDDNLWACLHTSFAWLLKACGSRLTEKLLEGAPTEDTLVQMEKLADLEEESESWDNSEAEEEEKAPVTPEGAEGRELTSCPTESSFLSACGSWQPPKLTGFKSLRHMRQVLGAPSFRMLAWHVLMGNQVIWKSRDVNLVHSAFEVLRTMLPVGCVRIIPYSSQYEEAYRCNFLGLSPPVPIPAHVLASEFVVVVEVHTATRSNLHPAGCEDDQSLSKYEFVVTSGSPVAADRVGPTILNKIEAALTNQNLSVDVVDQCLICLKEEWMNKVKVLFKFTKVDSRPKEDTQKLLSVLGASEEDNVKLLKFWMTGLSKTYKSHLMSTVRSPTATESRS
UniProt Q8QZR4: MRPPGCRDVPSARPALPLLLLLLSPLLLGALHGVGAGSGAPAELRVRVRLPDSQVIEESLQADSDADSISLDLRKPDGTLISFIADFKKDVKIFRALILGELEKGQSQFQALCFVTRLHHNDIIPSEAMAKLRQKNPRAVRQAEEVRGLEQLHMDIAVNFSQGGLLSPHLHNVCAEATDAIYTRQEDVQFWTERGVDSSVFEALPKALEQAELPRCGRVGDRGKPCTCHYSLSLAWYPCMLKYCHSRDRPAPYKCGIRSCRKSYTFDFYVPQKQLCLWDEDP
UniProt Q8K3X6: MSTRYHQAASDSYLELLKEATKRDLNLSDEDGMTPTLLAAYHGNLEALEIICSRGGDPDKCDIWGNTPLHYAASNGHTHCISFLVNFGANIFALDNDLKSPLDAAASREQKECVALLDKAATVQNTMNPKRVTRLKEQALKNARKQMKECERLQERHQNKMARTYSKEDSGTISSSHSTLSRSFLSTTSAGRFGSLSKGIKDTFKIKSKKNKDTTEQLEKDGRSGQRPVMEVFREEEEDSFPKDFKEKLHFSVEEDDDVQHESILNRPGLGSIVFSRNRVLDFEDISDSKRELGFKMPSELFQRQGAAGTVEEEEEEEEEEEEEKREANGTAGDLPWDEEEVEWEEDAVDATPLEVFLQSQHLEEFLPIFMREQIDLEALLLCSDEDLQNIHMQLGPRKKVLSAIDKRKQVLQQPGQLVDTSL

What follows are targets tested with CN[C@@H]1C[C@H]2O[C@@](C)([C@@H]1OC)n1c3ccccc3c3c4c(c5c6ccccc6n2c5c31)C(=O)NC4 [staurosporine] (assay: log2 fold change of tryptic peptide abundance, ligand vs vehicle (limited proteolysis) (log2 ratio); higher = more trypsin-susceptible (destabilized)). Conditions: ligand concentration: 20 uM; sample: mouse liver crude lysate; replicate design: treated separately.
“UniProt Q8QZX5 (peptide sequence: WGHQVELDDLFVTGR, peptide start residue: 63)” gave a log2 fold change of -0.21. Work on “UniProt Q8K3F6 (peptide sequence: FRTAFRMK, peptide start residue: 473)” yielded a log2 fold change of 0.00999. Target “UniProt Q8R164 (peptide sequence: DAKDAVDLMK, peptide start residue: 117)” has a log2 fold change of 0.212. “UniProt Q8K2C8 (peptide sequence: EKDEDAVQFANR, peptide start residue: 394)” was tested, and the log2 fold change was -0.472. “UniProt Q8K301 (peptide sequence: YFLEQAK, peptide start residue: 573)” gave a log2 fold change of -0.129. Work on “UniProt Q8K558 (peptide sequence: SSDSGLPSDIPHVR, peptide start residue: 228)” yielded a log2 fold change of -0.126. “UniProt Q8K3M5 (peptide sequence: FLYPTNALVIHK, peptide start residue: 243)” was tested, and the log2 fold change was 0.0761. “UniProt Q8K273 (peptide sequence: KFDSLRR, peptide start residue: 125)” gave a log2 fold change of -0.11. Work on “UniProt Q8QZS3 (peptide sequence: FWMTGLSK, peptide start residue: 552)” yielded a log2 fold change of -0.112. In the case of “UniProt Q8QZR4 (peptide sequence: DRPAPYKCGIR, peptide start residue: 248)”, the log2 fold change is reported as 0.124. For “UniProt Q8K3X6 (peptide sequence: TYSKEDSGTISSSHSTLSR, peptide start residue: 164)”, the log2 fold change was -0.0895.
